The list shows a part of the results.
Columns and labels:
Assay in all cases: log2 fold change, soluble protein after heating vs DMSO (PISA); higher = thermal stabilisation; K562 lysate, 10 uM; active = over 0.2 and 3.5 SD of the protein, either way, in both replicates (recomputed)
[1] = compound: CCCS(=O)(=O)Nc1ccc(F)c(C(=O)c2c[nH]c3ncc(Cl)cc23)c1F
Procedure, shortened: (§1)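 Following dounce homogenisation of K562 pellets in PBS pH 7.4 with 1 mM MgCl2, crude extract at 1 mg/mL protein was incubated for 30 min with 10 μM compound. Aliquots were then heated for 3 min over 48°C-58°C and pooled, NP-40 was added to 0.5% at 4°C, and soluble protein was recovered as the supernatant at 21,000xg for 90 min. Channel-sum-equalised TMTpro 16plex LC-MS/MS quantified this protein. Each value, from duplicates, is a log-two fold change in thermal stability relative to solvent controls.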

Protein sequences, listed by entry. Tags and fused reporters are not part of them. Lines headed by an entry give the natural chain unless they say otherwise; changes in a name come on top.
UniProt Q6JQN1: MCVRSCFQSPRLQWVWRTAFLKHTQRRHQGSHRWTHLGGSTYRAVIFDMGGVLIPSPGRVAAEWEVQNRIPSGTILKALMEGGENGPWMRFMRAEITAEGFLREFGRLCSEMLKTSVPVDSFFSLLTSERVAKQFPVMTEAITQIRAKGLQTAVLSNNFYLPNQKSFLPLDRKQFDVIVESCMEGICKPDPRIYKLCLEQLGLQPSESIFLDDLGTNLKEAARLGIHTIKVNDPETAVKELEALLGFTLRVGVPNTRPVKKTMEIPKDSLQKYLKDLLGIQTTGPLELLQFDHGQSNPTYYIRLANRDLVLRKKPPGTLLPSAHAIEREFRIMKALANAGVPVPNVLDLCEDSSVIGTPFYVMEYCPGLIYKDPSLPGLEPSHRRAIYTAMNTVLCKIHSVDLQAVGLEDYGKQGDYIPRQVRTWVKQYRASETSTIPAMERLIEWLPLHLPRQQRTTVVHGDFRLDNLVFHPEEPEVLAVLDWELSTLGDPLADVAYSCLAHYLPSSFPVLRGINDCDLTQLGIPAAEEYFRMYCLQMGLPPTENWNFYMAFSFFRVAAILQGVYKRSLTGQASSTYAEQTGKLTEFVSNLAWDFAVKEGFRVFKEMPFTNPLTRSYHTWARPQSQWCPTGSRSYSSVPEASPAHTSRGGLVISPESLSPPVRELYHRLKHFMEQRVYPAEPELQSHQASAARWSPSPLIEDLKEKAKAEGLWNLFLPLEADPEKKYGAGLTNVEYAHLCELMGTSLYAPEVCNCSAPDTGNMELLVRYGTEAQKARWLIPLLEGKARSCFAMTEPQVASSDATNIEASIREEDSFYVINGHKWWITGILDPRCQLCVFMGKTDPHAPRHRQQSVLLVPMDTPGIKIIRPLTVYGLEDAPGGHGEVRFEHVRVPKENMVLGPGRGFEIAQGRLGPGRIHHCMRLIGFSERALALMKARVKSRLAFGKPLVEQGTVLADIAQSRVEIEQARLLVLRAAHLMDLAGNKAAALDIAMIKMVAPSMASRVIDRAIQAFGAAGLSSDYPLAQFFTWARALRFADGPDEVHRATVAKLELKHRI
UniProt Q9P1F3: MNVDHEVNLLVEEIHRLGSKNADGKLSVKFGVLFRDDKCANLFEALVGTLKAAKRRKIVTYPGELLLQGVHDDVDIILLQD
UniProt Q96AP0: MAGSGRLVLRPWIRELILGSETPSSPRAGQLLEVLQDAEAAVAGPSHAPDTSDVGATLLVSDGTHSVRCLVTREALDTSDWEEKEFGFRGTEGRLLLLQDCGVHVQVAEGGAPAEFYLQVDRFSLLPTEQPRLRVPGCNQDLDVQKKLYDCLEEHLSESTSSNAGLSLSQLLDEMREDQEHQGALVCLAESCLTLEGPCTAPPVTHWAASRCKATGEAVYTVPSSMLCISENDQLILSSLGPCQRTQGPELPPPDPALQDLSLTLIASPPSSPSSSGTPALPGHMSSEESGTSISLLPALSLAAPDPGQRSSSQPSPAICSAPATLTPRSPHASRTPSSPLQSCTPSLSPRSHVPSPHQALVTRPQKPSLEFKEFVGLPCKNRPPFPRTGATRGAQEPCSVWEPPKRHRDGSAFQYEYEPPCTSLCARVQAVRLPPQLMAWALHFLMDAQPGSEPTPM
UniProt Q5T3U5: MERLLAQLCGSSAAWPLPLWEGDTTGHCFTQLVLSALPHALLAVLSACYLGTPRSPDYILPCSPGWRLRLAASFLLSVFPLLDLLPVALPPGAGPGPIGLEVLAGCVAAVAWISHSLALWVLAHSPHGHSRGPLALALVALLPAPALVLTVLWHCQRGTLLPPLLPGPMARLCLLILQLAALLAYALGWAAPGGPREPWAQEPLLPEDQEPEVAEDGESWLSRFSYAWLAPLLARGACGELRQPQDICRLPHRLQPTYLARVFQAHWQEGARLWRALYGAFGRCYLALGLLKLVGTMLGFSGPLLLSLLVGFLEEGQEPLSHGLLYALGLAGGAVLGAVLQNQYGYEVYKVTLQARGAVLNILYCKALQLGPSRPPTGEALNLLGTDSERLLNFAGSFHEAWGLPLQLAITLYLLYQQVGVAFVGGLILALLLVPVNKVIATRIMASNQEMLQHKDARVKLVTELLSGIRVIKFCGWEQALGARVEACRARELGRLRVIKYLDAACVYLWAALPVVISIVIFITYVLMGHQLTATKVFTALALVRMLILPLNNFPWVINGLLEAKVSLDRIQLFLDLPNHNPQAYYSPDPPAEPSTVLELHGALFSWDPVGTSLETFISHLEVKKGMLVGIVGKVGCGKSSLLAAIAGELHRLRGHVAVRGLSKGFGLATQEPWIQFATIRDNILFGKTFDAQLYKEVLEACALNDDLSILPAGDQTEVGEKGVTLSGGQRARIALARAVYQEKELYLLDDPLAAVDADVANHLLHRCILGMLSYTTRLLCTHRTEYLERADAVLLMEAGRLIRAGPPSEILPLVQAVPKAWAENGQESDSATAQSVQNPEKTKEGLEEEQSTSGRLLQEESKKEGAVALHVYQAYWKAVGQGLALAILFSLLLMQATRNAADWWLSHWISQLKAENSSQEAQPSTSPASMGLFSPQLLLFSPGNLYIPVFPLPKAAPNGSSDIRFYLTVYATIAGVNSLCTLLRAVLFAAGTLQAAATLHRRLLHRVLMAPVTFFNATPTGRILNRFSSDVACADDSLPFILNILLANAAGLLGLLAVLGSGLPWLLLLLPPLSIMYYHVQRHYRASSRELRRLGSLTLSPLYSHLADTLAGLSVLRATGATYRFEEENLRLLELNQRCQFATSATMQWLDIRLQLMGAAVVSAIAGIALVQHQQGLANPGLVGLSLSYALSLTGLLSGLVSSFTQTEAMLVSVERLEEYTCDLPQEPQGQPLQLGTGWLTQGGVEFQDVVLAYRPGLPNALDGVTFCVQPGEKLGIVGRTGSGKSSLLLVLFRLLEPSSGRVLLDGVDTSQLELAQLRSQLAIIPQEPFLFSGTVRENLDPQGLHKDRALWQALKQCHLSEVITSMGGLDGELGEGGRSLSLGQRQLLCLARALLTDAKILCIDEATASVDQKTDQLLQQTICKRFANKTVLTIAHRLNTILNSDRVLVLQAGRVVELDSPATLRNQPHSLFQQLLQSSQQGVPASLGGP
UniProt Q9BTE6: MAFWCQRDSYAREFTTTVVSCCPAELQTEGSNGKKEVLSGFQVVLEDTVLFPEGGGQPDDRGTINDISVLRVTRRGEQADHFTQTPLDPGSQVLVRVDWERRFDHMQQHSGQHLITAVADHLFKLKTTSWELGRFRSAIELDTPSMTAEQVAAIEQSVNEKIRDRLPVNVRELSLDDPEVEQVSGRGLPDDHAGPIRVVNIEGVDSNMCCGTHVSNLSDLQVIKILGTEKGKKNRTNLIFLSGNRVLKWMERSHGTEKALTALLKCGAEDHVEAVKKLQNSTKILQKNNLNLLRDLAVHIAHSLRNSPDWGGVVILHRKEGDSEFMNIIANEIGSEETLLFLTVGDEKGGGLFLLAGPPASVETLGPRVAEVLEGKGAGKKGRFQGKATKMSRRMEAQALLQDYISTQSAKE
UniProt Q0P651: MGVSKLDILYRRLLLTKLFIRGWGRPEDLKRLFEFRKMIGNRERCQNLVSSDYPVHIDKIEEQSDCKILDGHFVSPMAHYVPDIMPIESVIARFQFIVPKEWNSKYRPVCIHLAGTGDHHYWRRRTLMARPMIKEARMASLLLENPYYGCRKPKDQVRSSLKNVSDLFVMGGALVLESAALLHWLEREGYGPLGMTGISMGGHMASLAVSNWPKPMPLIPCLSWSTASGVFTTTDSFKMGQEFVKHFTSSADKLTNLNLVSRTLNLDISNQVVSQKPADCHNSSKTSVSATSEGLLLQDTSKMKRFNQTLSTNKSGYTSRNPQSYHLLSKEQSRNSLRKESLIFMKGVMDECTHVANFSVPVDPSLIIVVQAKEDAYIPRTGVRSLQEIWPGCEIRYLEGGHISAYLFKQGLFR
UniProt Q96P50: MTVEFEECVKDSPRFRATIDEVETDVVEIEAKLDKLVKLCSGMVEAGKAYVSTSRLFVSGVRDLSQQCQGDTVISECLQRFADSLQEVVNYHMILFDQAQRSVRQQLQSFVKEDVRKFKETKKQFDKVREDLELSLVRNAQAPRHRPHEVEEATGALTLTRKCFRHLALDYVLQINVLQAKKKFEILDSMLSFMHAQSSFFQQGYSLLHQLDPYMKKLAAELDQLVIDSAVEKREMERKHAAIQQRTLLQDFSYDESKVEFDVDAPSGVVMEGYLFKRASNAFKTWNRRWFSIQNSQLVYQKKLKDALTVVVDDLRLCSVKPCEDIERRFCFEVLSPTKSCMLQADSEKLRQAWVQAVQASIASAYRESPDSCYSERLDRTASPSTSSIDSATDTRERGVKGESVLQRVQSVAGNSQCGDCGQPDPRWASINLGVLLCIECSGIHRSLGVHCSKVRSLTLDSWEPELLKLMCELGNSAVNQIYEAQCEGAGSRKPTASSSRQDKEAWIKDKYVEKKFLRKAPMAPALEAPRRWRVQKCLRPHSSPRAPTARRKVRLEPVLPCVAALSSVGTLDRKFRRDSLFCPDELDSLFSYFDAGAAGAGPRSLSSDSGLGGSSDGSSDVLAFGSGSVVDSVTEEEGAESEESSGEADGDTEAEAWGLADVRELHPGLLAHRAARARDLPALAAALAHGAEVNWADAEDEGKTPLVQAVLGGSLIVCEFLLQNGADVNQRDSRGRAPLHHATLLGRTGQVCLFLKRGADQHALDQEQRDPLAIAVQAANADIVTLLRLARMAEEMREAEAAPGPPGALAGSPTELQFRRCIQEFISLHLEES
UniProt Q8N6N7: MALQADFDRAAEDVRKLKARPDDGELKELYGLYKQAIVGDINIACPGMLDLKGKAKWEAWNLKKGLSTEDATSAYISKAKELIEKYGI
UniProt P00519, whole entry, looked up: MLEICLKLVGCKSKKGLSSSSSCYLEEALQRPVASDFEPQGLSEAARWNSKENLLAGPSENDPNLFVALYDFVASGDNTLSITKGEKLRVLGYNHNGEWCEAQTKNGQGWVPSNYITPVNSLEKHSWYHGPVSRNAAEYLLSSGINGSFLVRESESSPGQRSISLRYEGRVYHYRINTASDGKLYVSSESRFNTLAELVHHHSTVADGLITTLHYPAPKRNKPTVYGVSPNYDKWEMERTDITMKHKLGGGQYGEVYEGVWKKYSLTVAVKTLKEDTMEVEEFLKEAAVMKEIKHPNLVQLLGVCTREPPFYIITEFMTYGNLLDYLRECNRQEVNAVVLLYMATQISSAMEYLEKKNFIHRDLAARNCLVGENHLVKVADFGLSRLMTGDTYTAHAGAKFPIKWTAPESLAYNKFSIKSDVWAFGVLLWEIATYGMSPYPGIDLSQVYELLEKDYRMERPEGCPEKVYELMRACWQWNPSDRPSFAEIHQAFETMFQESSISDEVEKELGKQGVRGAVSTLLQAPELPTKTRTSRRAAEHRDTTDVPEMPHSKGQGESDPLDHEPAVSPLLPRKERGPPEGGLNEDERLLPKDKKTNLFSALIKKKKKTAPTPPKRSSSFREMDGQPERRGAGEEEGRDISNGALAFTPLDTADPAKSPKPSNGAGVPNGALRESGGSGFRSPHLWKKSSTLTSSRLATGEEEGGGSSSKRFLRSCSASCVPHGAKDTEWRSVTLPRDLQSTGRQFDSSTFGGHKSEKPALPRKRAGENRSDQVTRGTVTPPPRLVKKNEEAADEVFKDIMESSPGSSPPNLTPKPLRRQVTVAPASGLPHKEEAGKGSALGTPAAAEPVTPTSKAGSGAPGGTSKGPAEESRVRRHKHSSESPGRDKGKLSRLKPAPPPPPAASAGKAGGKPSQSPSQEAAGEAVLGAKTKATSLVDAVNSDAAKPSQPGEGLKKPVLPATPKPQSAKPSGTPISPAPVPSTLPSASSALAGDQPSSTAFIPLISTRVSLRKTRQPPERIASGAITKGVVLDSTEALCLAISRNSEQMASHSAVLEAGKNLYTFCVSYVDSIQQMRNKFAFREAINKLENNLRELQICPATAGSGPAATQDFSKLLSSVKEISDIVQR
UniProt Q8TB40: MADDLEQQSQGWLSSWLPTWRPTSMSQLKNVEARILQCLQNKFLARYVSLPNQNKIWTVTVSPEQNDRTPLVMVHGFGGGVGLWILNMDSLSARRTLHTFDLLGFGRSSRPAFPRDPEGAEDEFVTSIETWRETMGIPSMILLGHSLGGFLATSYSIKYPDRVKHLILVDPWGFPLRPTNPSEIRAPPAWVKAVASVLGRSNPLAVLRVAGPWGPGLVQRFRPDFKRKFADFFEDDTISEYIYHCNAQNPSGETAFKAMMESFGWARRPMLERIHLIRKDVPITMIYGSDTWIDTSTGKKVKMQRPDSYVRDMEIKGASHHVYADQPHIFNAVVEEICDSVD

[2] = compound: CC[C@@H]1C(=O)N(C)c2cnc(Nc3ccc(C(=O)NC4CCN(C)CC4)cc3OC)nc2N1C1CCCC1
Procedure, shortened: as §1

volasertib = compound: CC[C@@H]1C(=O)N(C)c2cnc(Nc3ccc(C(=O)N[C@H]4CC[C@H](N5CCN(CC6CC6)CC5)CC4)cc3OC)nc2N1C(C)C [volasertib]
Procedure, shortened: as §1

[3] = compound: CCn1c(C(=O)N(C2CC2)C2CC2)cc2c3c(ncn3C)c(Nc3cc(C)n(C)n3)nc21
Procedure, shortened: as §1

[4] = compound: CCn1cc(-c2ccnc3[nH]c(-c4cccc(CN(C)C)c4)cc23)c(-c2ccc(NC(=O)N(C)C)cc2)n1
Procedure, shortened: as §1

[5] = compound: CN1CCC(CNc2ccc3ncc(-c4cccc(OC(F)(F)F)c4)n3n2)CC1
Procedure, shortened: as §1

saracatinib = compound: CN1CCN(CCOc2cc(OC3CCOCC3)c3c(Nc4c(Cl)ccc5c4OCO5)ncnc3c2)CC1 [saracatinib]
Procedure, shortened: as §1

sotrastaurin = compound: CN1CCN(c2nc(C3=C(c4c[nH]c5ccccc45)C(=O)NC3=O)c3ccccc3n2)CC1 [sotrastaurin]
Procedure, shortened: as §1

alvocidib = compound: CN1CC[C@H](c2c(O)cc(O)c3c(=O)cc(-c4ccccc4Cl)oc23)[C@H](O)C1 [alvocidib]
Procedure, shortened: as §1

Tubastatin A = compound: CN1CCc2c(c3ccccc3n2Cc2ccc(C(=O)NO)cc2)C1 [Tubastatin A]
Procedure, shortened: as §1

[6] = compound: CNC(=O)C1=CC=CC=C1NC2=NC(=NC=C2Cl)NC3=C(C=C(C=C3)N4CCOCC4)OC
Procedure, shortened: as §1

[7] = compound: CNc1nc(-c2ccc3c(N)n[nH]c3c2)cc(N2C[C@@H](C(=O)NC3CCCCC3)CC[C@H]2C)n1
Procedure, shortened: as §1

encorafenib = compound: COC(=O)N[C@@H](C)CNc1nccc(-c2cn(C(C)C)nc2-c2cc(Cl)cc(NS(C)(=O)=O)c2F)n1 [encorafenib]
Procedure, shortened: as §1

[8] = compound: COC(=O)[C@H](CCSC)NC(=O)C1=C(C=C(C=C1)NC[C@H](CS)N)C2=CC=CC=C2
Procedure, shortened: as §1

alisertib = compound: COc1cc(Nc2ncc3c(n2)-c2ccc(Cl)cc2C(c2c(F)cccc2OC)=NC3)ccc1C(=O)O [alisertib]
Procedure, shortened: as §1

[9] = compound: COc1cc2nc(-c3cc(F)ccc3O)nc(N[C@@H]3CNC[C@H]3C(C)(C)O)c2cc1OC
Procedure, shortened: as §1

gefitinib = compound: COc1cc2ncnc(Nc3ccc(F)c(Cl)c3)c2cc1OCCCN1CCOCC1 [gefitinib]
Procedure, shortened: as §1

barasertib = compound: CCN(CCCOc1ccc2c(Nc3cc(CC(=O)Nc4cccc(F)c4)[nH]n3)ncnc2c1)CCOP(=O)(O)O [barasertib]
Procedure, shortened: as §1

vemurafenib = compound: CCCS(=O)(=O)Nc1ccc(F)c(C(=O)c2c[nH]c3ncc(-c4ccc(Cl)cc4)cc23)c1F [vemurafenib]
Procedure, shortened: as §1

defactinib = compound: CNC(=O)c1ccc(Nc2ncc(C(F)(F)F)c(NCc3nccnc3N(C)S(C)(=O)=O)n2)cc1 [defactinib]
Procedure, shortened: as §1

Measured: log2 fold change

ACAD10 isoform 5 (UniProt Q6JQN1)
inactive: [1] 0.049 | [2] -0.06 | volasertib -0.05 | [3] -0.023 | [4] 0.062 | [5] 0.107 | saracatinib -0.009 | sotrastaurin -0.039 | alvocidib -0.019 | Tubastatin A -0.036 | [6] 0.048 | [7] -0.048 | encorafenib 0.042 | [8] 0.005 | alisertib -0.068 | [9] 0.064 | gefitinib -0.083

ABRACL (UniProt Q9P1F3)
inactive: [1] -0.074 | barasertib 0.06 | volasertib -0.001 | [4] 0.156 | [5] 0.053 | saracatinib 0.134 | sotrastaurin 0 | alvocidib -0.016 | [6] 0.121 | [7] 0.166 | alisertib 0.091 | [9] -0.081 | gefitinib -0.207

ABHD15 (UniProt Q6UXT9)
inactive: vemurafenib 0 | [1] 0.023 | [2] -0.026 | volasertib 0.002 | [3] -0.006 | [4] -0.134 | [5] 0.065 | alvocidib -0.04 | Tubastatin A 0.056 | [6] 0 | defactinib -0.051 | encorafenib 0.003 | [8] -0.04 | [9] 0.007

ACD (UniProt Q96AP0)
inactive: [3] -0.39 | [4] 0.356 | [5] -0.285 | sotrastaurin 0.04 | alvocidib 0.242 | Tubastatin A -0.009

ABCC10 (UniProt Q5T3U5)
inactive: [3] 0.048 | [4] 0.069 | [5] 0.095 | saracatinib 0.124 | alvocidib -0.07 | Tubastatin A 0.013 | [6] -0.011 | [7] -0.194 | alisertib -0.022 | gefitinib 0.052

AARSD1 (UniProt Q9BTE6)
inactive: [1] -0.009 | barasertib -0.019 | [2] -0.188 | volasertib -0.046 | [4] -0.182 | [5] 0.074 | saracatinib -0.025 | alvocidib 0.043 | [7] -0.026 | encorafenib -0.318 | [8] 0.199 | alisertib -0.11 | [9] -0.196 | gefitinib 0.017

ABHD18 (UniProt Q0P651)
inactive: [2] -0.018 | [6] 0.148 | encorafenib 0.045 | [8] 0.109 | alisertib -0.155 | gefitinib 0.049

ABCD4 (UniProt O14678)
inactive: [1] -0.211 | volasertib -0.195 | [6] -0.022 | [9] 0.017

ACAT1, A0A5F9ZHJ0
inactive: [3] -0.131 | [4] -0.006 | [5] 0.081 | alvocidib -0.023 | Tubastatin A 0.081 | alisertib -0.035 | gefitinib -0.056

ABCG2 (UniProt Q9UNQ0)
inactive: [4] -0.049 | [5] 0.127 | alvocidib -0.231

ABHD13 (UniProt Q7L211)
inactive: vemurafenib 0.069 | [1] -0.016 | barasertib 0.102 | [2] -0.107 | volasertib 0.06 | [5] 0.077 | saracatinib 0.179 | sotrastaurin -0.031 | alvocidib -0.225 | defactinib 0.022 | [7] -0.051 | encorafenib 0 | [8] 0.006 | alisertib 0.023 | [9] -0.019 | gefitinib 0.06
active: [4] -0.543

Reprinted at random: two records from the list.
ABCG2 (UniProt Q9UNQ0)
inactive: [4] -0.049 | [5] 0.127 | alvocidib -0.231

ACAT1, A0A5F9ZHJ0
inactive: [3] -0.131 | [4] -0.006 | [5] 0.081 | alvocidib -0.023 | Tubastatin A 0.081 | alisertib -0.035 | gefitinib -0.056

More records

ACAP3 (UniProt Q96P50)
inactive: [1] 0.193 | barasertib -0.464 | [2] -0.007 | volasertib -0.079 | [3] 0.046 | saracatinib -0.011 | Tubastatin A -0.335 | [7] 0.115 | encorafenib -0.064 | [8] 0.145 | alisertib 0.087 | [9] -0.012 | gefitinib 0.033

ACBD5 (UniProt Q5T8D3)
inactive: [1] 0.029 | volasertib -0.346 | [3] -0.148 | [4] -0.302 | [5] 0.022 | saracatinib 0.16 | alvocidib 0.019 | Tubastatin A 0.064 | [6] -0.107 | [7] -0.064 | [9] -0.014

AARS1 (UniProt H3BPK7)
inactive: vemurafenib 0.047 | defactinib 0.126

ABCC5 (UniProt O15440)
active: vemurafenib -0.603
inactive: [1] -0.001 | barasertib -0.034 | [2] -0.067 | volasertib -0.136 | [3] 0.145 | [4] -0.137 | [5] -0.022 | saracatinib 0.013 | sotrastaurin 0.018 | alvocidib -0.12 | Tubastatin A 0.121 | [6] -0.002 | defactinib 0.125 | [7] 0.008 | encorafenib 0.165 | [8] -0.032 | [9] -0.012

A0A494C071, A0A494C071
inactive: barasertib 0.186 | [4] -0.212 | [5] 0.083 | saracatinib -0.053 | alvocidib -0.065 | [7] -0.077

ACBD7 (UniProt Q8N6N7)
inactive: [1] 0.056 | volasertib 0.035 | saracatinib 0.017 | [6] 0.102 | [7] 0.041 | [9] -0.022

ABL1 isoform 2 (UniProt P00519)
inactive: vemurafenib 0.05 | [1] 0.125 | barasertib 0.031 | [2] -0.03 | volasertib -0.012 | [3] -0.048 | [4] 0.156 | [5] -0.097 | sotrastaurin -0.012 | Tubastatin A -0.091 | [6] 0.044 | defactinib -0.023 | [7] -0.011 | encorafenib 0.039 | [8] 0.071 | alisertib 0.019 | [9] -0.011

ABHD3 (UniProt Q8WU67)
inactive: [3] -0.13 | Tubastatin A 0.064

ACAP1 (UniProt Q15027)
inactive: [4] -0.14 | [5] -0.034 | sotrastaurin 0.134 | alvocidib 0.093

ABHD4 (UniProt Q8TB40)
inactive: vemurafenib 0.248 | defactinib -0.02 | alisertib -0.049 | gefitinib -0.006

Source: the supplement of paper PMC10849652
